Laboratory results as given in patent US20210017264A1 (SHANGHAI YILE BIOTECHNOLOGY, published 2021).
Results are given in words; binding and its absence hold for the method and conditions named. Some results given as binding are weak or reduced against the parent protein; the word gives no strength.

Tests used:
[1] = molecular target: T1, human proBDNF protein (prokaryotically expressed, Example 1) (human) (UniProt P23560); assay: ELISA; 50 ng antigen coated, HRP-labeled 2B11 at 1 ug/ml, A405
T1 sequence (looked up): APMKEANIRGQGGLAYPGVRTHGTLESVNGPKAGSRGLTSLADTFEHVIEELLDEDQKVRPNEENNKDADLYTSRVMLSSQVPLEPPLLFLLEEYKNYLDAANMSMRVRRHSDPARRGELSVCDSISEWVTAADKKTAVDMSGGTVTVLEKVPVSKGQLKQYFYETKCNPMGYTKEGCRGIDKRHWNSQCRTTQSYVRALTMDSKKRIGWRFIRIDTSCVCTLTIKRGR

[2] = molecular target: T2, prokaryotically expressed mouse proBDNF (purchased from Alomone Labs Corporation) (mouse) (UniProt P21237); assay: as above
T2 sequence (looked up): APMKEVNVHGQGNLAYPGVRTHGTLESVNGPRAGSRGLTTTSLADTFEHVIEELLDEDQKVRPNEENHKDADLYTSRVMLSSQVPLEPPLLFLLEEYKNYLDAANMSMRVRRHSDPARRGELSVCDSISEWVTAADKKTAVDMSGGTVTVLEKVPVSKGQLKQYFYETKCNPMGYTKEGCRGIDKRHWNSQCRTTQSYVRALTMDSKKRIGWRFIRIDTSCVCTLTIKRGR

[3] = molecular target: T1, human proBDNF protein (prokaryotically expressed, Example 1) (human); assay: ELISA; 50 ng antigen coated, antibody at 1 ug/ml, HRP goat anti-mouse secondary, A405

Measured: binding

B1: anti-proBDNF monoclonal antibody 2B11 (antibody, human IgG1, kappa, V domains shown)
VH: EVKVVESGGGLVQPGGSLRLSCATSGFTFTDYYMSWVRQPPGKALEWLGFIRNKANGYTTEYSSSVKGRFTISRDNSQSILYLQMNTLRAEDSATYYCAITMDYWGQGTSVTVSS
VL: DIQMTQSPASLSASVGETVTITCRASGNIHNYLAWYQKKQGKSPHLLVYNAQTLADGVPSRFSGSASGTQYSLKIDSLQPEDFGSYYCQHFWSTPFTFGSGTKLEIKR
notes: also called murine monoclonal antibody 2B11; antibody secreted from clone 2B11
binds: all assays above
